Reference: PubChem BioAssay AID720504 (National Center for Advancing Translational Sciences (NCATS), 2013)
About 10,000 (2.8%) of roughly 360,000 compounds were called active. The call rests on the fitted dose curve; in most records, active means well fitted inhibition curve with a large enough effect; inconclusive means small, poorly fitted or top-dose-only effect; inactive means flat fitted curve, though single readings scatter. The inconclusive results got no clear call from the source. Where the call is inconclusive, the potency comes from a doubtful curve fit.

By UniProt entry, the sequences of proteins in these tests, tags left out.
UniProt P53350, whole entry, looked up: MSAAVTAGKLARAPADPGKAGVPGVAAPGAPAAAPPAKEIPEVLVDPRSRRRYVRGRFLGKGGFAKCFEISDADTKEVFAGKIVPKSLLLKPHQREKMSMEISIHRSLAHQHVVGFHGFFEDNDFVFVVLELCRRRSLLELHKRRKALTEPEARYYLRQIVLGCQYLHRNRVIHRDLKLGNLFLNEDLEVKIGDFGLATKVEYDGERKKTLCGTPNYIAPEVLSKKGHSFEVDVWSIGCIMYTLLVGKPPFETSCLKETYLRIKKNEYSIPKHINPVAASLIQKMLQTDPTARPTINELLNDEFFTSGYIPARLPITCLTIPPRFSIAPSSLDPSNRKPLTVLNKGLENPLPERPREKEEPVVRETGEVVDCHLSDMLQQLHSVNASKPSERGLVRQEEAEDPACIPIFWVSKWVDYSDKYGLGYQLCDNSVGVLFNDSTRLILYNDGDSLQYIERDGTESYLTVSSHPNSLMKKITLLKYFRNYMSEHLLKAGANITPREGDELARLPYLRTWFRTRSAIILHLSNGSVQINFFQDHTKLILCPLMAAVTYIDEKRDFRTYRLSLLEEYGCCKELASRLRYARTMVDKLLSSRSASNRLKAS

target: Serine/threonine-protein kinase PLK1 (Homo sapiens) (UniProt P53350); assay: qHTS for Inhibitors of PLK1-PDB (polo-like kinase 1 - polo-box domain): Primary Screen; details: Plk1 PBD binding of FITC phosphopeptide, fluorescence polarization; further: nearly all actives have a fitted effect of over 65% in size
Source text: The polo-like kinase 1 (Plk1) is a member of a conserved subfamily of serine / threonine protein kinases that plays a pivotal roles in cell proliferation. It has a C-terminal non-catalytic region called the polo-box domain (PBD) that plays a crucial role in the subcellular localization of the Plk1. […] Furthermore, depletion of the overexpressed Plk1 by RNAi efficiently induces apoptotic cell death in cancer and reduces tumor growth in mouse xenograft models. Thus, targeting Plk1 is an appealing strategy for anti-cancer therapy. Therefore, this project aimed to screen the Molecular Libraries Small Molecule Repository (MLSMR) using a novel approach to find inhibitors that target the Plk1 PBD instead of the conventional N-terminal catalytic domain. This project employed a fluorescence polarization (FP) assay using a FITC-conjugated phospho-9-mer (p-9-mer) peptide and purified human Plk1 PBD protein. The identified small molecule inhibitors of Plk1 PBD can then further be developed into useful tools for biomedical and clinical research that complements or replaces current relevant disease therapy. NIH Chemical Genomics Center [NCGC] NIH Molecular Libraries Probe Centers Network [MLPCN] MLPCN Grant: MH100728 Assay Submitter (PI): Kyung Lee, NCI
Four microliter of 25 nM FITC-p-9-mer + 60 nM Plk1 PBD in buffer solution (final concentrations 25 nM and 60 nM respectively) or 4 uL of 25 nM FITC-p-9-mer (final concentration 25 nM) in buffer will be dispensed into a 1,536 Greiner medium-binding black solid plate. Small molecules at final concentrations of 18 nM to 57 uM and positive control phospho-9-mer (sequence: Ac-PPLHSpTAI-NH2) at final concentrations 26 nM to 57 uM and phospho-13-mer (sequence: Ac-[…]pTAI-NH2) at final concentrations of 1 nM to 2.3 uM will be pin-transferred (23 nL) to the plate via a Kalypsys pin-tool robotics equipped with a 1,536-pin array. The reaction plate will be centrifuged for 1 min at 1000 rpm and incubated at room temperature for 10 min. The FITC fluorescence signals will be read using the PerkinElmer ViewLux plate reader at 480 / 20 nm excitation and 540 / 20 nm S and P polarization emission wavelengths. Reagent bottles will be kept submerged into 4 °C recirculating chiller bath and all liquid lines will be covered with aluminum foil to minimize degradation. Library plates will be screened starting from the lowest to the highest concentrations to minimize compound carryover. Vehicle only plates, with DMSO being pin-transferred instead of compound solutions, will be included regularly throughout the screen to record any systematic shifts in assay signal.
Potency means the concentration at half of the fitted maximal effect.

SMILES | Potency
COc1cc(/C=C2\C(=N)N3N=C(S(C)(=O)=O)SC3=NC2=O)ccc1OC(=O)c1cccs1 | inconclusive: 21.2 µM [inhibitor, single point]
Cc1cc(N2C(=O)C(O)=C(C(=O)c3cc4ccccc4o3)C2c2ccc(Cl)cc2)no1 (centres undefined) | inconclusive: 23.8 µM [inhibitor, single point]
COc1cc(NS(=O)(=O)c2ccc(NC(=S)NC(=O)c3sc4ccccc4c3Cl)cc2)nc(OC)n1 | inconclusive: 21.2 µM [inhibitor, single point]
COc1cccc(C2C3=C(N=c4s/c(=C\c5ccc(OCC(=O)O)cc5)c(=O)n42)c2ccccc2CC3)c1 (centres undefined) | inconclusive: 26.7 µM [inhibitor, partial curve]
O=C(O)COc1ccccc1/C=N/NC(=O)CSc1nnc(SCc2cccc3ccccc23)s1 | inconclusive: 21.2 µM [inhibitor, partial curve]
O=C(O)Cn1cc(/C=c2/sc3nc4ccccc4n3c2=O)c2ccccc21 | inconclusive: 23.8 µM [inhibitor, full curve]
COc1cc(/C=C2/C(=O)NN(c3ccc(Cl)cc3)C2=O)cc(Br)c1O | inconclusive: 23.8 µM [inhibitor, single point]
COC(=O)c1sc(-c2ccc(C(C)(C)C)cc2)cc1NC(=O)COCC(=O)O | inconclusive: 26.7 µM [inhibitor, partial curve]
COc1cc(/C=N/Nc2ccc(Cl)c(C(=O)O)c2)ccc1OC(=O)c1ccc(F)cc1 | inconclusive: 23.8 µM [inhibitor, single point]
CCCCCCc1c(C)c2ccc(OCC(=O)N[C@@H](Cc3ccccc3)C(=O)O)cc2oc1=O | inconclusive: 21.2 µM [inhibitor, single point]
O=C(Nc1ccc(C(=O)O)cc1)/C(=C\C=C\c1ccccc1)NC(=O)c1cccc(Br)c1 | inconclusive: 21.2 µM [inhibitor, single point]
CCc1nnc(NS(=O)(=O)c2ccc(N/C=C(\C=O)c3nc4cc(Cl)ccc4o3)cc2)s1 | inconclusive: 29.9 µM [inhibitor, single point]
CCCOc1ccc(C2C(C(=O)c3cc4ccccc4o3)=C(O)C(=O)N2c2cc(C)on2)cc1 (centres undefined) | inconclusive: 26.7 µM [inhibitor, single point]
COc1cc(/C=C2\C(=N)N3N=C(S(C)(=O)=O)SC3=NC2=O)ccc1OCCOc1ccccc1C | inconclusive: 26.7 µM [inhibitor, single point]

2 entries picked at random from those above:
SMILES | Potency
CCCCCCc1c(C)c2ccc(OCC(=O)N[C@@H](Cc3ccccc3)C(=O)O)cc2oc1=O | inconclusive: 21.2 µM [inhibitor, single point]
COc1cc(NS(=O)(=O)c2ccc(NC(=S)NC(=O)c3sc4ccccc4c3Cl)cc2)nc(OC)n1 | inconclusive: 21.2 µM [inhibitor, single point]
